Experimental data from ChEMBL document CHEMBL5579863, “Galectin-8N-Selective 4-Halophenylphthalazinone-Galactals Double π-Stack in a Unique Pocket” (ACS Med Chem Lett, 2024).

Test: in vitro
Conditions: PAMPA

O=c1c2ccccc2c(-c2ccc(Br)cc2)nn1CO[C@@H]1C=CO[C@H](CO)[C@@H]1O
Papp at 5 h, 100 µM: > 5 ×10⁻⁶ cm/s

O=c1c2ccccc2c(-c2ccc(F)cc2)nn1CO[C@@H]1C=CO[C@H](CO)[C@@H]1O
Papp at 5 h, 100 µM: > 5 ×10⁻⁶ cm/s
